Laboratory results from publication PMC4752349.
No constants are given. Whether binding was seen depends on the method and setting. For some assays here: In cells and extracts the contact can be indirect. Some binding calls cover weakened binding; strength is not graded here. For some assays here: Tags and fused reporters may be left off the sequences shown.

Sequences of proteins named here, by UniProt entry; tags and fusion partners are left off.
UniProt P62191: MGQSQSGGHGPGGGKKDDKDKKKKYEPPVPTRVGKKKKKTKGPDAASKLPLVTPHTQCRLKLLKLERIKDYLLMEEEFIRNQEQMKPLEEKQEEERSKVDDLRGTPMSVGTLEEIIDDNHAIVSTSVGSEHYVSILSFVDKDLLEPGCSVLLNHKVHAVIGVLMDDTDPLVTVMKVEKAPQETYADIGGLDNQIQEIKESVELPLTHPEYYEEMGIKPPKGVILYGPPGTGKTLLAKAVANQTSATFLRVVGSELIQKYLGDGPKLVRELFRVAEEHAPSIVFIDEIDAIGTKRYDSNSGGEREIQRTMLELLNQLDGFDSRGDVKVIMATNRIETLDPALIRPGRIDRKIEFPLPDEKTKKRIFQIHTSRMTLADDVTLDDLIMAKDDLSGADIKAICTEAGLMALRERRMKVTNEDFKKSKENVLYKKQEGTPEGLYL

Experiments:
[1] = biological target: T1, GAL4 DNA binding domain (BD) fused with full-length TOPORS (pBD-TOPORS) (human) (UniProt Q9NS56); experiment: two-hybrid; direct test of pAD-PSMC1 against pBD-TOPORS or pGBKT7-N-, M-, C-TOPORS; media D (two reporter genes) and Q (four reporter genes); six experiments, four or more positives read as positive
T1 sequence: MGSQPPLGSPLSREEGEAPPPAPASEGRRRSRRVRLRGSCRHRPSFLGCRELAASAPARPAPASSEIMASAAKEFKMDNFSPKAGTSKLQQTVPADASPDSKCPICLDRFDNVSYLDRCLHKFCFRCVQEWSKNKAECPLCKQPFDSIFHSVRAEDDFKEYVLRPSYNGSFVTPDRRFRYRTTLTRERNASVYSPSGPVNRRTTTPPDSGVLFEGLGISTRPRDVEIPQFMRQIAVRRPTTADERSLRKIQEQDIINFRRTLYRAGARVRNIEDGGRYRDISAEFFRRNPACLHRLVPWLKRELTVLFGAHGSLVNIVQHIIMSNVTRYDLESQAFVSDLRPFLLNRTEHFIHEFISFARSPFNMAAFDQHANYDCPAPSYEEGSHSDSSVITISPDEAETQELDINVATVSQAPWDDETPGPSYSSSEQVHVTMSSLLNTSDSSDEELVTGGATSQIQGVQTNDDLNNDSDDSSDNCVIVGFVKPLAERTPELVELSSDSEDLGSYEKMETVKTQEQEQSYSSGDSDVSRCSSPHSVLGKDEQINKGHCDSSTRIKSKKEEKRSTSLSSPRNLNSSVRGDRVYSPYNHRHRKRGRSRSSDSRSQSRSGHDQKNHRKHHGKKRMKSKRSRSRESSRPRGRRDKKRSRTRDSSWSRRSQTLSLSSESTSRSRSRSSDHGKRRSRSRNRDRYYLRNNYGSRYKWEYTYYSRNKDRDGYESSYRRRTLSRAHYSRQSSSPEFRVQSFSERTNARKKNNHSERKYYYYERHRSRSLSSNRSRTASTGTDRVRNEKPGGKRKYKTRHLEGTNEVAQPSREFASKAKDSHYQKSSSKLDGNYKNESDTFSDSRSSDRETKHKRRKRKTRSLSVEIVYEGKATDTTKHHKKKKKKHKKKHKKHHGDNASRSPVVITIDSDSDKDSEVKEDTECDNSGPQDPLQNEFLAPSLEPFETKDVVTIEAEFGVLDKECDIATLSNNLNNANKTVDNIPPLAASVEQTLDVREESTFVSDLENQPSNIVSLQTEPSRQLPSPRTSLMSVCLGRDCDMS

[2] = biological target: T2, C-TOPORS (residues 705-1045), pGBKT7-C-TOPORS (human) (UniProt Q9NS56); experiment: as above
T2 sequence: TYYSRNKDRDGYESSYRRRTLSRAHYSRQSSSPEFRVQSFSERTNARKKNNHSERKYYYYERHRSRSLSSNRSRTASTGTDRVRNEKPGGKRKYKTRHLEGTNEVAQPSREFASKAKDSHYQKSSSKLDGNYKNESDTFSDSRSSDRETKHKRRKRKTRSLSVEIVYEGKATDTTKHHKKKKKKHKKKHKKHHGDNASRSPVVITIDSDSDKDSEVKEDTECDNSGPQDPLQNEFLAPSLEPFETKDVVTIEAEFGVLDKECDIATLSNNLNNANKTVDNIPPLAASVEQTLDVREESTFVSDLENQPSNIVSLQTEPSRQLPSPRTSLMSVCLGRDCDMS

[3] = biological target: T3, M-TOPORS (residues 373-781), pGBKT7-M-TOPORS (human) (UniProt Q9NS56); experiment: as above
T3 sequence: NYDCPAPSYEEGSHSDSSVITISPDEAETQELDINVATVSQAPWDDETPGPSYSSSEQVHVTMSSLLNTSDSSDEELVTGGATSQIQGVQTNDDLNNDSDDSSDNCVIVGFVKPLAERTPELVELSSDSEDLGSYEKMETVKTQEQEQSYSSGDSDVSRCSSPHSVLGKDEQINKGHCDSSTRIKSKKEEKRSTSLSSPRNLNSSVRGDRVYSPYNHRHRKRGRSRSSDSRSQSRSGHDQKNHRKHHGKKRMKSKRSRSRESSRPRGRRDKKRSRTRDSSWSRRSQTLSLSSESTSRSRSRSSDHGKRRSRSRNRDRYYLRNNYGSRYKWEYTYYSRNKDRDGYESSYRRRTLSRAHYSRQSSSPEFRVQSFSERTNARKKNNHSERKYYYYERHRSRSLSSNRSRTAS

[4] = biological target: T4, N-TOPORS (residues 1-380), pGBKT7-N-TOPORS (human) (UniProt Q9NS56); experiment: as above
T4 sequence: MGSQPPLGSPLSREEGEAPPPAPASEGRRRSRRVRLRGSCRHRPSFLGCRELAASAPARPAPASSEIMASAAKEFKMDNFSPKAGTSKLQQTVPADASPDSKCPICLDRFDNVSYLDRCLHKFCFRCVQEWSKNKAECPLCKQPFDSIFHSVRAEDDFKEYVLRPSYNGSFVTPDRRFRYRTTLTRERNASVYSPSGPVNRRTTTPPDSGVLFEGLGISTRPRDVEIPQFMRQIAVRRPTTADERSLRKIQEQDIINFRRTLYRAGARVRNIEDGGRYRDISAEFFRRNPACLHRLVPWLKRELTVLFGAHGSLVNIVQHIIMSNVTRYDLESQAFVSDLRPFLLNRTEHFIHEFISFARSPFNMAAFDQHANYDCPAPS

[5] = biological target: T5, endogenous TOPORS of hTERT-RPE1 cells (human (endogenous in hTERT-RPE1)) (UniProt Q9NS56); experiment: co-IP; endogenous proteins; mouse monoclonal anti-TOPORS on Protein G magnetic beads, lysates of hTERT-RPE1 or 661W cells in RIPA buffer, one hour at room temperature; Western blot for P26s4
T5 sequence: T1 sequence

binding [1]	binding [2]	binding [3]	binding [4]	binding [5]	Substance
binds	binds	binds	binds weakly	–	full-length P26s4 fused with the GAL4 activation domain (pAD-PSMC1) (from UniProt P62191 1-440)
–	–	–	–	binds	endogenous P26s4 of hTERT-RPE1 cells, band of approximately 60 kDa (from UniProt P62191 1-440)
